Publication PMC10374912 (Nature Communications, 2023)
Results are given in words; binding and its absence hold for the method and conditions named. In cells and extracts the contact can be indirect.

Target: 3XHA-tagged Zcf2 (C. albicans)
Test: co-IP; C. albicans whole cell lysates from YPGal cultures before and after AA or KCN treatment; anti-Flag or anti-HA antibody, Protein G Dynabeads; F300 buffer (50 mM HEPES-KOH pH 7.2, 300 mM KOAc, 10% glycerol) with 0.02% IGEPAL-CA630; Benzonase-treated; immunoblot

3XHA-tagged Zcf2 (from UniProt A0A1D8PDI4 1-775)
binding: no binding
